Laboratory results: article PMC9910007
Results are given in words; binding and its absence hold for the method and conditions named. Binding seen in cells or lysates may run through a third protein. Some binding calls cover weakened binding; strength is not graded here.

Chains of the proteins cited; added tags and fusions are not shown.
UniProt P84025: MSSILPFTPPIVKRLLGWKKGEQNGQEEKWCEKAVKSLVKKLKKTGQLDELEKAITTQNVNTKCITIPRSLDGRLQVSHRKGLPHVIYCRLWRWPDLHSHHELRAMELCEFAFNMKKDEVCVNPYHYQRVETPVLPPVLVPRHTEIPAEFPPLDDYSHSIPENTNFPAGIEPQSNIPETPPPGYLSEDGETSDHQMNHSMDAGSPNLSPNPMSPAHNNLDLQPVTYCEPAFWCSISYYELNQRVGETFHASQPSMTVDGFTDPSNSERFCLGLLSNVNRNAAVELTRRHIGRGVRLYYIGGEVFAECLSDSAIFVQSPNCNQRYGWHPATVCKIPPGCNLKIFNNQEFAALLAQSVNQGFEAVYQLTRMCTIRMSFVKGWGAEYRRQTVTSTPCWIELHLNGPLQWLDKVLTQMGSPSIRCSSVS

Target: T1, FAT10, endogenous in neonatal rat cardiac fibroblasts (rat (endogenous in NRCFs)) (UniProt Q921A3)
T1 sequence: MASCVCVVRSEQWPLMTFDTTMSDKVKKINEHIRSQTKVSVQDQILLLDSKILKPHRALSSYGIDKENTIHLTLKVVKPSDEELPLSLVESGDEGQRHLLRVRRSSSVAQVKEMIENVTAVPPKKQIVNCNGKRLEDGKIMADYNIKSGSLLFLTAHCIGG
Test: co-IP; endogenous proteins in NRCFs

binding: binds
Substance: Smad3, endogenous in neonatal rat cardiac fibroblasts (from UniProt P84025 1-425)
